{"source": "PubChem BioAssay AID1259327 (Drosophila RNAi Screening Center, 2017)", "assay": "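Knock-downs altering cellular ATP with no metal added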", "cells": "Drosophila S2R+ cells", "knock-down reagent": "long dsRNA against Drosophila genes", "time to read-out": "5 days (water added on day 4, read one day later)", "treatment": "water added as vehicle, no metal, one day before read-out", "read-out": "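Luciferase ATP signal per well, normalised to plate mean, duplicate average converted to z-score across plates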", "scale": "ATP z-score: higher = more total ATP than typical wells; ATP luminescence: higher = more total ATP", "active means": "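Called active when the ATP z-score exceeds 1.5 or falls below -1.5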", "calls": "active = hit: ATP up or down; inactive = no clear ATP change", "note": "The deposit covers about 3,100 reagents; this is a part drawn at random. 378 of all reagents (12%) count as active. 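Hits include both directions; z-score sign shows ATP rise or fall; raw luminescence values are not plate-normalised.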 Unmarked entries are inactive. Reagents against one gene are numbered here. Reagent sequences are not shown. Not stated in the record: the amount of reagent."}
{"target gene": "Tsp42A (Tetraspanin 42A)", "reagent no.": 1, "ATP z-score, duplicate mean": -0.28, "ATP luminescence, replicate 1 (RLU)": 5.95e5, "ATP luminescence, replicate 2 (RLU)": 5.94e5}
{"target gene": "Tsp42A (Tetraspanin 42A)", "reagent no.": 2, "ATP z-score, duplicate mean": "2.07 (active)", "ATP luminescence, replicate 1 (RLU)": 8.42e5, "ATP luminescence, replicate 2 (RLU)": 6.70e5}
{"target gene": "CG32447", "reagent no.": 1, "ATP z-score, duplicate mean": 0.648, "ATP luminescence, replicate 1 (RLU)": 8.28e5, "ATP luminescence, replicate 2 (RLU)": 7.72e5}
{"target gene": "CG32447", "reagent no.": 2, "ATP z-score, duplicate mean": 0.755, "ATP luminescence, replicate 1 (RLU)": 1.03e6, "ATP luminescence, replicate 2 (RLU)": 9.65e5}
{"target gene": "CG33969", "reagent no.": 1, "ATP z-score, duplicate mean": -0.491, "ATP luminescence, replicate 1 (RLU)": 6.84e5, "ATP luminescence, replicate 2 (RLU)": 6.94e5}
{"target gene": "CG1208", "reagent no.": 1, "ATP z-score, duplicate mean": 0.0569, "ATP luminescence, replicate 1 (RLU)": 7.52e5, "ATP luminescence, replicate 2 (RLU)": 6.73e5}
{"target gene": "CG1208", "reagent no.": 2, "ATP z-score, duplicate mean": -1.42, "ATP luminescence, replicate 1 (RLU)": 3.83e5, "ATP luminescence, replicate 2 (RLU)": 3.36e5}
{"target gene": "Ptp10D (Protein tyrosine phosphatase 10D)", "reagent no.": 1, "ATP z-score, duplicate mean": 0.214, "ATP luminescence, replicate 1 (RLU)": 6.20e5, "ATP luminescence, replicate 2 (RLU)": 7.38e5}
{"target gene": "Ptp10D (Protein tyrosine phosphatase 10D)", "reagent no.": 2, "ATP z-score, duplicate mean": -0.603, "ATP luminescence, replicate 1 (RLU)": 5.23e5, "ATP luminescence, replicate 2 (RLU)": 5.34e5}
{"target gene": "Ptp10D (Protein tyrosine phosphatase 10D)", "reagent no.": 3, "ATP z-score, duplicate mean": 1.4, "ATP luminescence, replicate 1 (RLU)": 8.47e5, "ATP luminescence, replicate 2 (RLU)": 5.46e5}

Copied from the listing, 4 entries:
{"target gene": "CG32447", "reagent no.": 2, "ATP z-score, duplicate mean": 0.755, "ATP luminescence, replicate 1 (RLU)": 1.03e6, "ATP luminescence, replicate 2 (RLU)": 9.65e5}
{"target gene": "CG33969", "reagent no.": 1, "ATP z-score, duplicate mean": -0.491, "ATP luminescence, replicate 1 (RLU)": 6.84e5, "ATP luminescence, replicate 2 (RLU)": 6.94e5}
{"target gene": "CG1208", "reagent no.": 1, "ATP z-score, duplicate mean": 0.0569, "ATP luminescence, replicate 1 (RLU)": 7.52e5, "ATP luminescence, replicate 2 (RLU)": 6.73e5}
{"target gene": "CG1208", "reagent no.": 2, "ATP z-score, duplicate mean": -1.42, "ATP luminescence, replicate 1 (RLU)": 3.83e5, "ATP luminescence, replicate 2 (RLU)": 3.36e5}

Next results follow.
{"target gene": "kumpel (kin of rumpel)", "reagent no.": 1, "ATP z-score, duplicate mean": 0.833, "ATP luminescence, replicate 1 (RLU)": 3.06e5, "ATP luminescence, replicate 2 (RLU)": 9.29e5}
{"target gene": "kumpel (kin of rumpel)", "reagent no.": 2, "ATP z-score, duplicate mean": 0.485, "ATP luminescence, replicate 1 (RLU)": 3.03e5, "ATP luminescence, replicate 2 (RLU)": 8.61e5}
{"target gene": "kumpel (kin of rumpel)", "reagent no.": 3, "ATP z-score, duplicate mean": -0.353, "ATP luminescence, replicate 1 (RLU)": 2.89e5, "ATP luminescence, replicate 2 (RLU)": 7.10e5}
{"target gene": "kumpel (kin of rumpel)", "reagent no.": 4, "ATP z-score, duplicate mean": 0.291, "ATP luminescence, replicate 1 (RLU)": 3.22e5, "ATP luminescence, replicate 2 (RLU)": 7.69e5}
{"target gene": "kumpel (kin of rumpel)", "reagent no.": 5, "ATP z-score, duplicate mean": 0.684, "ATP luminescence, replicate 1 (RLU)": 3.45e5, "ATP luminescence, replicate 2 (RLU)": 7.99e5}
{"target gene": "kumpel (kin of rumpel)", "reagent no.": 6, "ATP z-score, duplicate mean": -0.275, "ATP luminescence, replicate 1 (RLU)": 2.64e5, "ATP luminescence, replicate 2 (RLU)": 7.89e5}
{"target gene": "kumpel (kin of rumpel)", "reagent no.": 7, "ATP z-score, duplicate mean": -0.424, "ATP luminescence, replicate 1 (RLU)": 7.93e5, "ATP luminescence, replicate 2 (RLU)": 8.03e5}
{"target gene": "kumpel (kin of rumpel)", "reagent no.": 8, "ATP z-score, duplicate mean": -1.26, "ATP luminescence, replicate 1 (RLU)": 8.84e5, "ATP luminescence, replicate 2 (RLU)": 8.70e5}
{"target gene": "kumpel (kin of rumpel)", "reagent no.": 9, "ATP z-score, duplicate mean": -0.829, "ATP luminescence, replicate 1 (RLU)": 4.35e5, "ATP luminescence, replicate 2 (RLU)": 3.63e5}
{"target gene": "kumpel (kin of rumpel)", "reagent no.": 10, "ATP z-score, duplicate mean": "-2.42 (active)", "ATP luminescence, replicate 1 (RLU)": 4.14e5, "ATP luminescence, replicate 2 (RLU)": 3.36e5}
{"target gene": "CadN (Cadherin-N)", "reagent no.": 1, "ATP z-score, duplicate mean": -0.885, "ATP luminescence, replicate 1 (RLU)": 6.44e5, "ATP luminescence, replicate 2 (RLU)": 6.20e5}
{"target gene": "CadN (Cadherin-N)", "reagent no.": 2, "ATP z-score, duplicate mean": -1.2, "ATP luminescence, replicate 1 (RLU)": 7.86e5, "ATP luminescence, replicate 2 (RLU)": 9.24e5}
{"target gene": "CG5646", "reagent no.": 1, "ATP z-score, duplicate mean": 0.0128, "ATP luminescence, replicate 1 (RLU)": 6.62e5, "ATP luminescence, replicate 2 (RLU)": 7.51e5}
{"target gene": "CG5646", "reagent no.": 2, "ATP z-score, duplicate mean": -0.143, "ATP luminescence, replicate 1 (RLU)": 8.35e5, "ATP luminescence, replicate 2 (RLU)": 7.78e5}
